Data published in the odorant receptor screen of Mainland et al. (2015).
Values joined by “and” are separate entries in the source; they are usually repeats but may differ in a detail not shown here. Equal entries are not always repeated. The list shows a part of the results. Each value is one well over the wells without odorant, computed here; the data are noisy.

Assays:
Assay in all cases: odorant receptor activation (CRE luciferase / Renilla) (fold of no-odor wells); higher = more activation
Details in all cases: 100 µM
OR13G1 I132V clone 1036 = system: OR13G1 I132V clone 1036
OR13H1 clone 1497 = system: OR13H1 clone 1497
OR13J1 H133R clone 1098 = system: OR13J1 H133R clone 1098
OR14A16 Indel clone 1030 = system: OR14A16 Indel clone 1030
OR14A2 clone 1042 = system: OR14A2 clone 1042
[1] = system: OR14C36 G225R/D231Y clone 1028
[2] = system: OR14I1 V36A/D50N/S170N clone 1479
OR14J1 clone 1318 = system: OR14J1 clone 1318
OR14J1 clone 1391 = system: OR14J1 clone 1391
OR14K1 clone 1043 = system: OR14K1 clone 1043
OR14L1 clone 1029 = system: OR14L1 clone 1029
OR1A1 P285S clone 1531 = system: OR1A1 P285S clone 1531
OR1A1 R128H clone 1528 = system: OR1A1 R128H clone 1528
OR1A1 V233M clone 1287 = system: OR1A1 V233M clone 1287
OR1A1 V233M clone 1530 = system: OR1A1 V233M clone 1530
OR1A1 clone 1529 = system: OR1A1 clone 1529
OR1A2 clone 1158 = system: OR1A2 clone 1158
OR1C1 clone 1044 = system: OR1C1 clone 1044
OR1D2 clone 1376 = system: OR1D2 clone 1376
OR1D5 clone 1289 = system: OR1D5 clone 1289

SMILES	odorant receptor activation (OR13G1 I132V clone 1036)	odorant receptor activation (OR13H1 clone 1497)	odorant receptor activation (OR13J1 H133R clone 1098)	odorant receptor activation (OR14A16 Indel clone 1030)	odorant receptor activation (OR14A2 clone 1042)	odorant receptor activation [1]	odorant receptor activation [2]	odorant receptor activation (OR14J1 clone 1318)	odorant receptor activation (OR14J1 clone 1391)	odorant receptor activation (OR14K1 clone 1043)	odorant receptor activation (OR14L1 clone 1029)	odorant receptor activation (OR1A1 P285S clone 1531)	odorant receptor activation (OR1A1 R128H clone 1528)	odorant receptor activation (OR1A1 V233M clone 1287)	odorant receptor activation (OR1A1 V233M clone 1530)	odorant receptor activation (OR1A1 clone 1529)	odorant receptor activation (OR1A2 clone 1158)	odorant receptor activation (OR1C1 clone 1044)	odorant receptor activation (OR1D2 clone 1376)	odorant receptor activation (OR1D5 clone 1289)
CCCCCC(C)=O [2-heptanone]	0.409	0.727 and 0.715	0.576	0.32	2.08	0.443	0.759 and 0.582	0.996	0.928	1.21	0.597	2.16 and 0.816	0.84 and 0.714	5.38	1.38 and 1.03	1.15 and 1.02	1.03	0.562	1.27	0.628
O=C1CCCCC1 [Cyclohexanone]	0.741	0.381 and 0.992	1.14	0.795	0.981	1.06	0.628 and 0.713	0.751	0.891	0.452	0.713	0.596 and 1.15	0.614 and 0.844	0.454	0.803 and 0.909	0.311 and 0.926	0.927	1.35	0.9	0.656
C=C(C)C1CC=CCC1 (stereo not drawn) [r-limonene]	1.52 and 0.7		1.69 and 1.38	1.67 and 0.859	1.14 and 2.2	1.17 and 1.26	0.84 and 0.673 and 0.753	0.797 and 0.275	1.29 and 0.937	1.2 and 1.22	1.6 and 1.16				5.3 and 1.79 and 2.31		1.17 and 0.554	0.962 and 1.68	1.13 and 0.96	
CC1=CCC(C(C)(C)O)CC1 (stereo not drawn) [terpineol]	1.12	0.756	1.57	1.17	1.1	0.844	0.689	0.832	1.21	0.967	1.05	1.79	1.64	5.99 and 7.59	2.66	2.36	1.09	0.964	1.26	0.944
CCCCCCCCC=O [nonyl aldehyde]	0.791	1.12	1.25	1.13	0.979	1.03	1.2	0.924	0.853	0.873	1.16	1.16	1.23		1.14	0.924	1.15	0.92	1.09	1.08
CC12CCC(C1)C(C)(C)C2=O (stereo not drawn) [fenchone]	0.935	1.07	1.17	1.16	1.09	0.966	0.977	0.969	1.02	1.12	1.27	1.35	1.17		0.982	0.947	1.15	0.96	0.846	1.14
C=CCc1ccc(OC(C)=O)c(OC)c1 [eugenol acetate]	1.7	1.65	1.95	1.88	1.61	1.86	1.51	1.86	1.65	1.63	1.64	2.05	2.53		2.3	2.44	1.89	1.83	1.56	2.14
CC(C)(O)CCCC1=CCC(C=O)CC1 (stereo not drawn) [lyral]														1.43						
CC(=O)c1ccccc1 [acetophenone]	0.401	0.813 and 0.766	0.665	0.721	2.16	0.531	0.848 and 0.638	1.72	0.891	0.669	0.566	1.49 and 0.806	0.963 and 0.882	1.82	1.37 and 1.18	0.752 and 1.22	1.31	0.812	1.01	0.802
CCCCCCCOC(C)=O [heptyl acetate]	0.634	0.885 and 1.21	0.415	1.63	1.34	1.06	0.875 and 1.2	0.687 and 1.09	0.981	1.96	0.809	0.641 and 1.39	0.731 and 1.56	1.43 and 1.05 and 1.26	1.34 and 1.56	0.753 and 1.39	0.917	0.473	1.31	0.596 and 1.05
CC1COCc2cc3c(cc21)C(C)(C)C(C)C3(C)C (stereo not drawn) [galaxolide]	2.75		1.15	5.54	3.15	4.35		3.32 and 2.58	4.17	5.39	10.5		5.69 and 5.53		4.63 and 4.04	2.59 and 4.21	0.788	3.78	4.73	
CC(C)C=O [isobutyraldehyde]	0.83	0.979 and 1.03	0.759	1.19	2.04	0.992	1.04 and 1.08	1.92 and 0.833	0.76	1.83	1.87	0.635 and 0.81	0.942 and 1.11		1.06 and 1.19	0.809 and 1.21	0.822	0.604	0.978	0.853 and 0.826
COc1cc(C=O)ccc1O [vanillin]	1.16	0.819	1.12	1.11	0.922	0.835	0.873	1.16	1.07	1.08	1.24	0.966	1	3.36 and 1.79	1.15	0.994	0.841	0.928	0.911	1.03
CCCCCCCCCCC=O [undecanal]	1.22	1.19	1.27	1.22	0.92	0.849	0.813	0.792	1.3	1.03	1.25	0.904	0.943		1.25	1	0.97	0.957	1.44	0.965
CC=Cc1ccc(O)c(OC)c1 [isoeugenol]	0.768	1.04 and 2.04	0.806	1.94	1.02	0.792	0.764 and 1.38	2.02 and 1.68	1.52	1.23	2.27		3.08 and 2.8		4.61 and 2.96	1.35 and 2.71	0.942	0.765	1.69	0.885 and 1.79

As entered above.
odorant receptor activation (OR1A1 V233M clone 1287) with CC(C)(O)CCCC1=CCC(C=O)CC1 (stereo not drawn) [lyral] reads 1.43
odorant receptor activation [1] with CCCCCC(C)=O [2-heptanone] reads 0.443
